According to the supplement of paper PMC4604168 (melanoma cell lines):
This is one part of the list. Many values rest on one well or one pass, so single values are uncertain.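 Cells were imaged in 1,536-well plates, and nuclei stained with an antibody against cleaved PARP were counted against all DNA-stained nuclei to give the apoptosis fraction. Screening doses were chosen to leave most cells alive, and resting and induced cleaved-PARP levels differ strongly between cell lines.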

Key:
Assay in all cases: cleaved PARP positive nuclei fraction relative to DMSO control; melanoma cells; higher = more apoptosis
Details in all cases: library dose: low library concentration; 72 h
MeWo = system: MeWo
RPMI7951 = system: RPMI7951
RVH-421 = system: RVH-421
SkMel28 = system: SkMel28
SkMel30 = system: SkMel30
UACC62 = system: UACC62
SkMel5 = system: SkMel5
UACC257 = system: UACC257
SkMel2 = system: SkMel2

Compound	cleaved PARP positive nuclei fraction (MeWo) [%]	cleaved PARP positive nuclei fraction (RPMI7951) [%]	cleaved PARP positive nuclei fraction (RVH-421) [%]	cleaved PARP positive nuclei fraction (SkMel28) [%]	cleaved PARP positive nuclei fraction (SkMel30) [%]	cleaved PARP positive nuclei fraction (UACC62) [%]	cleaved PARP positive nuclei fraction (SkMel5) [%]	cleaved PARP positive nuclei fraction (UACC257) [%]	cleaved PARP positive nuclei fraction (SkMel2) [%]
C[C@]1(O)C[C@@H](c2nc(-c3ccc4ccc(-c5ccccc5)nc4c3)c3c(N)nccn32)C1 + Nc1nc(F)nc2c1ncn2[C@@H]1O[C@H](CO)[C@@H](O)[C@@H]1O [fludarabine] (first compound 0.4 µM, partner dose 0.2 µM)	808	62.7	111	75	4220	277			
CN(c1ncccc1CNc1nc(Nc2ccc3c(c2)CC(=O)N3)ncc1C(F)(F)F)S(C)(=O)=O + COc1cc2c(Oc3ccc4[nH]c(C)cc4c3F)ncnc2cc1OCCCN1CCCC1 [cediranib] (first compound 0.08 µM, partner dose 0.4 µM)	50.3	203	101	56.7	55.5	212	43.7	245	
NC(=O)c1ccc(N(C(N)=O)c2c(F)cccc2F)nc1-c1ccc(F)cc1F + CC(C)CCN1c2nc(Nc3cc(F)c(O)c(F)c3)ncc2N(C)C(=O)C1C [BID1870] (first compound 0.4 µM, partner dose 0.2 µM)	120	305	69.4	196	37.5	114	216	102	
CCCCCCCCc1ccc(CCC(N)(CO)CO)cc1 [fingolimod] + O=c1cc(-c2cccc3c2Sc2ccccc2S3)oc(N2CCOCC2)c1 [KU55933] (first compound 2 µM, partner dose 1 µM)	30.9	144	30.4	414	136	183	69.5	47.8	
CC1(C)CCC(c2ccc(Cl)cc2)=C(CN2CCN(c3ccc(C(=O)NS(=O)(=O)c4ccc(N[C@H](CCN5CCOCC5)CSc5ccccc5)c(S(=O)(=O)C(F)(F)F)c4)cc3)CC2)C1 + O=C(Nc1cccc(Cl)c1)Nc1ncc(CCNc2ncnc3ccsc23)s1 [SNS314] (first compound 0.4 µM, partner dose 0.0008 µM)	62.2	213	81.2	172	77.4	211	194	116	
C[C@@H](N)c1ccc(C(=O)Nc2ccnc3[nH]ccc23)cc1 + Cn1nnc2c(C(N)=O)ncn2c1=O [temozolomide] (first compound 0.4 µM, partner dose 2 µM)	285	69.9	261	115	108	56.3			67.4
CCCCCCCCc1ccc(CCC(N)(CO)CO)cc1 [fingolimod] + COc1cc(N2CCC(N3CCN(C)CC3)CC2)ccc1Nc1ncc(Cl)c(Nc2ccccc2S(=O)(=O)C(C)C)n1 [NVP-TAE684] (first compound 2 µM, partner dose 0.08 µM)	100	296	87.3	370	45.4	198	206	91.5	
CC1(C)CCC(c2ccc(Cl)cc2)=C(CN2CCN(c3ccc(C(=O)NS(=O)(=O)c4ccc(N[C@H](CCN5CCOCC5)CSc5ccccc5)c(S(=O)(=O)C(F)(F)F)c4)cc3)CC2)C1 + Nc1nc(F)nc2c1ncn2[C@@H]1O[C@H](CO)[C@@H](O)[C@@H]1O [fludarabine] (first compound 0.4 µM, partner dose 0.2 µM)	2500	370	234	699	4230	678			1270
C[C@@H](N)c1ccc(C(=O)Nc2ccnc3[nH]ccc23)cc1 + CCN(CC)CCNC(=O)c1c(C)[nH]c(/C=C2\C(=O)Nc3ccc(F)cc32)c1C [sunitinib] (first compound 0.4 µM, partner dose 0.4 µM)	113	238	99.9	88.4	75.7	133			175
CC1(C)CCC(c2ccc(Cl)cc2)=C(CN2CCN(c3ccc(C(=O)NS(=O)(=O)c4ccc(N[C@H](CCN5CCOCC5)CSc5ccccc5)c(S(=O)(=O)C(F)(F)F)c4)cc3)CC2)C1 + C=CCNC1=C2C[C@@H](C)C[C@H](OC)[C@H](O)[C@@H](C)/C=C(\C)[C@H](OC(N)=O)[C@@H](OC)/C=C\C=C(/C)C(=O)NC(=CC1=O)C2=O [Tanespimycin] (first compound 0.4 µM, partner dose 0.002 µM)	345	242	69.6	199	280	40			175
NC(=O)c1ccc(N(C(N)=O)c2c(F)cccc2F)nc1-c1ccc(F)cc1F + CO[C@H]1C[C@@H]2CC[C@@H](C)[C@@](O)(O2)C(=O)C(=O)N2CCCC[C@H]2C(=O)O[C@H]([C@H](C)C[C@@H]2CC[C@@H](OCCO)[C@H](OC)C2)CC(=O)[C@H](C)/C=C(\C)[C@@H](O)[C@@H](OC)C(=O)[C@H](C)C[C@H](C)/C=C/C=C/C=C/1C [everolimus] (first compound 0.4 µM, partner dose 0.02 µM)	180	59.8	211	444	136	392			
C[C@]1(O)C[C@@H](c2nc(-c3ccc4ccc(-c5ccccc5)nc4c3)c3c(N)nccn32)C1 + Cn1cc(/C=C2\C(=O)Nc3cccnc32)c2ccccc21 [GW441756] (first compound 0.4 µM, partner dose 0.4 µM)	44.7	138	181	154	114	152	47.9	336	
Cn1cnc2c(F)c(Nc3ccc(Br)cc3Cl)c(C(=O)NOCCO)cc21 [selumetinib] + OCCn1cc(-c2cnc3nnn(Cc4ccc5ncccc5c4)c3n2)cn1 [PF04217903] (first compound 0.015 µM, partner dose 1 µM)	293	174	131	39.4	178	189	38.4	79.4	

Two consecutive records out of the list so far, quoted:
Compound	cleaved PARP positive nuclei fraction (MeWo) [%]	cleaved PARP positive nuclei fraction (RPMI7951) [%]	cleaved PARP positive nuclei fraction (RVH-421) [%]	cleaved PARP positive nuclei fraction (SkMel28) [%]	cleaved PARP positive nuclei fraction (SkMel30) [%]	cleaved PARP positive nuclei fraction (UACC62) [%]	cleaved PARP positive nuclei fraction (SkMel5) [%]	cleaved PARP positive nuclei fraction (UACC257) [%]	cleaved PARP positive nuclei fraction (SkMel2) [%]
CC1(C)CCC(c2ccc(Cl)cc2)=C(CN2CCN(c3ccc(C(=O)NS(=O)(=O)c4ccc(N[C@H](CCN5CCOCC5)CSc5ccccc5)c(S(=O)(=O)C(F)(F)F)c4)cc3)CC2)C1 + O=C(Nc1cccc(Cl)c1)Nc1ncc(CCNc2ncnc3ccsc23)s1 [SNS314] (first compound 0.4 µM, partner dose 0.0008 µM)	62.2	213	81.2	172	77.4	211	194	116	
C[C@@H](N)c1ccc(C(=O)Nc2ccnc3[nH]ccc23)cc1 + Cn1nnc2c(C(N)=O)ncn2c1=O [temozolomide] (first compound 0.4 µM, partner dose 2 µM)	285	69.9	261	115	108	56.3			67.4
